From publication PMC10558657
Where two headings read alike, the source gives them in different places. No constants are given. Whether binding was seen depends on the method and setting. Binding seen in cells or lysates may run through a third protein. Some entries that bind do so weakly or less than the wild type. For part of these data: Tags and fused reporters may be left off the sequences shown.

Chains of the proteins cited; added tags and fusions are not shown.
UniProt Q86WV6: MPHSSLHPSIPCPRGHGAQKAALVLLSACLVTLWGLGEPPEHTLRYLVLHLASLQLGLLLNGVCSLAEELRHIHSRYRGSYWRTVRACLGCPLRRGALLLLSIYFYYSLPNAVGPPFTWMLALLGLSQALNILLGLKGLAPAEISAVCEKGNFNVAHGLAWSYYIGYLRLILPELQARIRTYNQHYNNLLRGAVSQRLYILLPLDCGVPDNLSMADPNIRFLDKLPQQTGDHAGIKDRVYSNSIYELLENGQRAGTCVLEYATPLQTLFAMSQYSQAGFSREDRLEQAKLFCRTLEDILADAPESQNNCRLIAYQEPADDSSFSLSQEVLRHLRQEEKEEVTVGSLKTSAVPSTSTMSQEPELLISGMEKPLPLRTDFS

Assays:
[1] = target: T1, IRHOM2 C476A mutant (human) (UniProt Q6PJF5); assay: co-IP; Co-IP of IRHOM2 (WT or C476A) from THLE2 cells, blots for partner proteins; with or without ZDHHC3, 2-BP, ZDHHC3 knockout or ZDHHC3 C157A
T1 sequence: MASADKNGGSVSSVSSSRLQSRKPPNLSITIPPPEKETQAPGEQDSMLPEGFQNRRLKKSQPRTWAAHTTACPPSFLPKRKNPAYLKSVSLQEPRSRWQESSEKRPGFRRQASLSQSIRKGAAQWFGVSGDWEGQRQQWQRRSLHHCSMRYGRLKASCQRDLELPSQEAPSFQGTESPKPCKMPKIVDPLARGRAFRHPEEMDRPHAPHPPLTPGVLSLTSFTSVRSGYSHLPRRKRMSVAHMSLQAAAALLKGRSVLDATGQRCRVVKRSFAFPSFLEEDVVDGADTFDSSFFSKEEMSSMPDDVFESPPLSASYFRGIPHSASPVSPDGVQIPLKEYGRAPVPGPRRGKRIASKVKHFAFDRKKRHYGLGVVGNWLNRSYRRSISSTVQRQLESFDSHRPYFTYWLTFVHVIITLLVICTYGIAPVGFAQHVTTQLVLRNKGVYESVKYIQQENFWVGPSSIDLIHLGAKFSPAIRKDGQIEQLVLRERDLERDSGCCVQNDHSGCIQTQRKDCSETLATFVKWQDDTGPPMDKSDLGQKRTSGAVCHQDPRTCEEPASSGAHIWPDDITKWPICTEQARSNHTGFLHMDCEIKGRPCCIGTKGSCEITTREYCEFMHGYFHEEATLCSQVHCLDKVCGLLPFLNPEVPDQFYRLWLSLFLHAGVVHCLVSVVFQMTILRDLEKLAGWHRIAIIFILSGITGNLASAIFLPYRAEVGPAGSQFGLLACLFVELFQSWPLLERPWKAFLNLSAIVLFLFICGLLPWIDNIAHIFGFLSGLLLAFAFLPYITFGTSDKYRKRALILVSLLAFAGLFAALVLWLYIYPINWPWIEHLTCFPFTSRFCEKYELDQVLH

Flag-IRHOM2 (human) = target: T2, Flag-IRHOM2 (human) (UniProt Q6PJF5); assay: co-IP; THLE2 cells transfected with Flag- and HA-tagged IRHOM2 and ZDHHC3 (whole or truncated); blots with anti-HA or anti-Flag
T2 sequence: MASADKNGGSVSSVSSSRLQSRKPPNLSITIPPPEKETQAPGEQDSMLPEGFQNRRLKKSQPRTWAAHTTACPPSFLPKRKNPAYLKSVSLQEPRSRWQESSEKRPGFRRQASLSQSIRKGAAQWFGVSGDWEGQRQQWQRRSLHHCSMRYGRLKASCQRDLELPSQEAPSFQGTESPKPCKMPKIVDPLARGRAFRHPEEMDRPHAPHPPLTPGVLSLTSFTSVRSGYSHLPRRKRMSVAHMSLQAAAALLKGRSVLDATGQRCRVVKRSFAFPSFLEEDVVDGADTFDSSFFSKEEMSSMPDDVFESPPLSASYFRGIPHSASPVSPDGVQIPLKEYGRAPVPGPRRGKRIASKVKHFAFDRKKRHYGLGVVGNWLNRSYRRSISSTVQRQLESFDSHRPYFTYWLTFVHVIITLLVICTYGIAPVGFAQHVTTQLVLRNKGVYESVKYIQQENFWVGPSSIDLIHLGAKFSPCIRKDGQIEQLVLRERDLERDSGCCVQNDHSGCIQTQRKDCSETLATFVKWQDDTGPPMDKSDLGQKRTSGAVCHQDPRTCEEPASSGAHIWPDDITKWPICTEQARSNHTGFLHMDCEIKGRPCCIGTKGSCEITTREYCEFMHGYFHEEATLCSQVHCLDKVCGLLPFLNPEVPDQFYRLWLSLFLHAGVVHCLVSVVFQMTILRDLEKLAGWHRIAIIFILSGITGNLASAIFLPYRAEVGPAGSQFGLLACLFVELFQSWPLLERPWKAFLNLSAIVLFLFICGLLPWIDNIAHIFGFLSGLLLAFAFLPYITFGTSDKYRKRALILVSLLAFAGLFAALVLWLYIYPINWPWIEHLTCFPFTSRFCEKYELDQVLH

[2] = target: T3, IRHOM2 (WT) precipitated from THLE2 cells (human) (UniProt Q6PJF5); assay: co-IP; Co-IP of IRHOM2 (WT or C476A) from THLE2 cells, blots for partner proteins; with or without ZDHHC3, 2-BP, ZDHHC3 knockout or ZDHHC3 C157A
T3 sequence: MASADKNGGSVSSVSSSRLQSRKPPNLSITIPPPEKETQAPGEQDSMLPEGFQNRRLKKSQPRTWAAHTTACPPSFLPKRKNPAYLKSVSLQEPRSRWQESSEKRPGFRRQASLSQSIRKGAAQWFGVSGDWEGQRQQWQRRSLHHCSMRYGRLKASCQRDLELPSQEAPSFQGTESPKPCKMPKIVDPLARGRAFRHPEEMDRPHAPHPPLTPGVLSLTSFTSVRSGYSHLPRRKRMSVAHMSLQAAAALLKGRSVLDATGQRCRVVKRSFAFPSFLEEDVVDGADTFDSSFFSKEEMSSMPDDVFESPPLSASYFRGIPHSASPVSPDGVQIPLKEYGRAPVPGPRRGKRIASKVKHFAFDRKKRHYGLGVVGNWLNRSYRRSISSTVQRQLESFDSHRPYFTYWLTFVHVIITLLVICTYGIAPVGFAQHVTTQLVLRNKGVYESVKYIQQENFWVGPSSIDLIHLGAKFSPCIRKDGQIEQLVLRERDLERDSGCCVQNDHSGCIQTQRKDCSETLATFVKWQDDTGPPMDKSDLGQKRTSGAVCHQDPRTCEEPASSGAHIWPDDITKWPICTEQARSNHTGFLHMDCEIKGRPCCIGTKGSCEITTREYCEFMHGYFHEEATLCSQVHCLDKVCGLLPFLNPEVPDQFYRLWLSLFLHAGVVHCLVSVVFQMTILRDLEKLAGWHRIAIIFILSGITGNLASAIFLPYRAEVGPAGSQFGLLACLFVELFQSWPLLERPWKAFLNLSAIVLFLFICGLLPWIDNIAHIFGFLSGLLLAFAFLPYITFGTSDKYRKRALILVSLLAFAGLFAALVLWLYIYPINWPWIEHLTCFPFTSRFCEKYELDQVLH

HA-IRHOM2 WT (human) = target: T4, HA-IRHOM2 WT (human) (UniProt Q6PJF5); assay: co-IP; THLE2 cells transfected with Flag- and HA-tagged IRHOM2 and ZDHHC3 (whole or truncated); blots with anti-HA or anti-Flag
T4 sequence: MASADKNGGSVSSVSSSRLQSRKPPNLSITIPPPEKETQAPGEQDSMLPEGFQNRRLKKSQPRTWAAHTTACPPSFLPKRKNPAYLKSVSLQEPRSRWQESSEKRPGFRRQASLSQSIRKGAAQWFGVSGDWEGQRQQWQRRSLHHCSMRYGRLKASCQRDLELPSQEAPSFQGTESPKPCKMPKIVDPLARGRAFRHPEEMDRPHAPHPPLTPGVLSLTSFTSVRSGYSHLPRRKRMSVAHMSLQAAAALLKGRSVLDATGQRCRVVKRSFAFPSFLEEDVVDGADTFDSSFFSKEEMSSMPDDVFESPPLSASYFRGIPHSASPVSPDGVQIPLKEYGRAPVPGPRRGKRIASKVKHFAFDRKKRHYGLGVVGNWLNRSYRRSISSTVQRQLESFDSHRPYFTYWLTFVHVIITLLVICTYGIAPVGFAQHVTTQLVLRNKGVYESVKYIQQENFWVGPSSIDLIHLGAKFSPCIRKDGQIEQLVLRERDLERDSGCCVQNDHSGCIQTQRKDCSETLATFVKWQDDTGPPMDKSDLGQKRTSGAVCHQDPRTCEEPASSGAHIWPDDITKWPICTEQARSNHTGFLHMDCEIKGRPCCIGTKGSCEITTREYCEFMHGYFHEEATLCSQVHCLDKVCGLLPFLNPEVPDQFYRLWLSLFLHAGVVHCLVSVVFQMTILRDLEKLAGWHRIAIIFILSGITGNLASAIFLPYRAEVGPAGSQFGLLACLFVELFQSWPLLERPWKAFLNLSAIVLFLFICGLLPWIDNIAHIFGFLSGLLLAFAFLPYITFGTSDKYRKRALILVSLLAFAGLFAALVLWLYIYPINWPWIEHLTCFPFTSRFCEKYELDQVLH

[3] = target: T1, IRHOM2 C476A mutant (human); assay: co-IP; Co-IP of IRHOM2 (WT or C476A) from THLE2 cells, blots for partner proteins; with or without ZDHHC3, 2-BP, ZDHHC3 knockout or ZDHHC3 C157A; remark: listed apart in the source

Molecule: STING (from UniProt Q86WV6 1-379)
- binding [1]: binds

B1: HA-ZDHHC3 (enzyme, UniProt Q9NYG2 1-299)
chain: MMLIPTHHFRNIERKPEYLQPEKCVPPPYPGPVGTMWFIRDGCGIACAIVTWFLVLYAEFVVLFVMLIPSRDYVYSIINGIVFNLLAFLALASHCRAMLTDPGAVPKGNATKEFIESLQLKPGQVVYKCPKCCSIKPDRAHHCSVCKRCIRKMDHHCPWVNNCVGENNQKYFVLFTMYIALISLHALIMVGFHFLHCFEEDWTKCSSFSPPTTVILLILLCFEGLLFLIFTSVMFGTQVHSICTDETGIEQLKKEERRWAKKTKWMNMKAVFGHPFSLGWASPFATPDQGKADPYQYVV
- binding (Flag-IRHOM2 (human)): binds

B2: MAP3K7 (enzyme, UniProt O43318 1-606)
chain: MSTASAASSSSSSSAGEMIEAPSQVLNFEEIDYKEIEVEEVVGRGAFGVVCKAKWRAKDVAIKQIESESERKAFIVELRQLSRVNHPNIVKLYGACLNPVCLVMEYAEGGSLYNVLHGAEPLPYYTAAHAMSWCLQCSQGVAYLHSMQPKALIHRDLKPPNLLLVAGGTVLKICDFGTACDIQTHMTNNKGSAAWMAPEVFEGSNYSEKCDVFSWGIILWEVITRRKPFDEIGGPAFRIMWAVHNGTRPPLIKNLPKPIESLMTRCWSKDPSQRPSMEEIVKIMTHLMRYFPGADEPLQYPCQYSDEGQSNSATSTGSFMDIASTNTSNKSDTNMEQVPATNDTIKRLESKLLKNQAKQQSESGRLSLGASRGSSVESLPPTSEGKRMSADMSEIEARIAATTAYSKPKRGHRKTASFGNILDVPEIVISGNGQPRRRSIQDLTVTGTEPGQVSSRSSSPSVRMITTSGPTSEKPTRSHPWTPDDSTDTNGSDNSIPMAYLTLDHQLQPLAPCPNSKESMAVFEQHCKMAQEYMKVQTEIALLLQRKQELVAELDQDEKDQQNTSRLVQEHKKLLDENKSLSTYYQQCKKQLEVIRSQQQKRQGTS
- binding [2]: binds

B3: Flag-ZDHHC3 WT (enzyme, UniProt Q9NYG2 1-299)
chain: MMLIPTHHFRNIERKPEYLQPEKCVPPPYPGPVGTMWFIRDGCGIACAIVTWFLVLYAEFVVLFVMLIPSRDYVYSIINGIVFNLLAFLALASHCRAMLTDPGAVPKGNATKEFIESLQLKPGQVVYKCPKCCSIKPDRAHHCSVCKRCIRKMDHHCPWVNNCVGENNQKYFVLFTMYIALISLHALIMVGFHFLHCFEEDWTKCSSFSPPTTVILLILLCFEGLLFLIFTSVMFGTQVHSICTDETGIEQLKKEERRWAKKTKWMNMKAVFGHPFSLGWASPFATPDQGKADPYQYVV
- binding (HA-IRHOM2 WT (human)): binds

B4: FRMD8 (protein, UniProt Q9BZ67 1-464)
chain: MDGTEGSAGQPGPAERSHRSSVSSVGARAADVLVYLADDTVVPLAVENLPSLSAHELHRAVREVLQLPDIALDVFALWLVSPLLEVQLKPKHQPYKLGRQWPELLLRFTSAPDDDVAMDEPFLQFRRNVFFPKRRELQIHDEEVLRLLYEEAKGNVLAARYPCDVEDCEALGALVCRVQLGPYQPGRPAACDLREKLDSFLPAHLCKRGQSLFAALRGRGARAGPGEQGLLNAYRQVQEVSSDGGCEAALGTHYRAYLLKCHELPFYGCAFFHGEVDKPAQGFLHRGGRKPVSVAISLEGVHVIDSREKHVLLGLRFQELSWDHTSPEEEEPILWLEFDGDSEGTPVNKLLKIYSKQAELMSSLIEYCIELSQAAEPAGPQDSATGSPSDPSSSLAPVQRPKLRRQGSVVSSRIQHLSTIDYVEDGKGIRRVKPKRTTSFFSRQLSLGQGSYTVVQPGDSLEQG
- binding [2]: binds
- binding [3]: binds
